The full ranking holds about 33,000 sequences; the median of “E-score (-0.5 to 0.5)” is about -0.0034, and the highest 2% start at about 0.25. This is one part of the list.
Target: T1, Yap3 (UniProt P38749)
T1 sequence: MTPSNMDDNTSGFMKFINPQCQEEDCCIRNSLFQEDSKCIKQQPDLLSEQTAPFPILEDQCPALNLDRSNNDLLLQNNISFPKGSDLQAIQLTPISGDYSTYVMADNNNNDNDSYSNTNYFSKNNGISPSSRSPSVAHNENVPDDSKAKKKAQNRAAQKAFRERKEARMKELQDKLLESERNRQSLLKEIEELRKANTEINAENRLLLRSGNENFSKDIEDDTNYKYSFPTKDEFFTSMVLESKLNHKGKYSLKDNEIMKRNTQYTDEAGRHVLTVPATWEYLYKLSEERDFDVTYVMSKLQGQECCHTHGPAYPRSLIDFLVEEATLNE
Experiment: PBM E-score (8-mer binding enrichment) (E-score (-0.5 to 0.5)); higher = stronger / more preferred TF binding
Settings: protein concentration: 100 nM; construct: GST-full length
Outline: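 Masliner-normalised scans of fluorescent anti-GST signal were the basis for scoring. That signal came from GST-tagged yeast transcription factors applied at about 100-200 nM to double-stranded universal all-10-mer Agilent arrays on fresh or once-stripped slides. Each ungapped eight-base word, pooled with its reverse complement, received an E-score from the Universal PBM Analysis Suite.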

Sequence | PBM E-score
TACATTCA | 0.161
CATAACCG | 0.00583
CCCCGGCC | -0.35
ATCTTGTG | 0.0325
AAGGAAGT | 0.0285
AACAAAGC | 0.134
ATCCTCAG | 0.166
CGCCTCGA | -0.00388
GCAAGCAA | -0.0437
AATTGGAG | -0.0503
CCGCCGCC | -0.171
GAGCACAA | 0.066
ACTCGTCC | -0.148
CAAATTTA | 0.203
CATGCGAC | 0.0586
ATGCTTAC | 0.00368
AACGGTAG | -0.0242
GCACTGGC | -0.0323
CACCAGAC | -0.0524
GAAAAGCA | 0.0951
CTTCGAAG | 0.0178
GATCGTGC | -0.00651
TATTCAAA | 0.138
AGTGTGGA | 0.0487
ATTCGACG | 0.166

Sequence | PBM E-score
ATACCCAC | -0.0482
ACATTCCC | 0.00295
GACGAAAC | 0.00983
ACTTGGAG | -0.0381
AGTCGACT | 0.277
ACAGATGT | -0.0809
GCGCGCGA | 0.121
GGTGCGCA | 0.0309
ACTATGGC | 0.0572
AGGTTTGC | -0.0512
CCTCTATC | -0.0735
ACGCGAGG | 0.0928
AAGCGGTA | 0.0894
AGGACCGA | -0.0553
CAGCGTGA | -0.0264
AGGATTTA | 0.153
ATGTTTAG | 0.141
TCTCCCAA | -0.0993
CTCATCAG | 0.145
GCTTCACC | -0.15
AAGATAAA | 0.286
AGTGTCAT | 0.153
ATATTGTG | 0.147
ATTAACAG | 0.0676
AGAGGCAC | -0.224

Sequence | PBM E-score
CAGTTCAC | -0.0312
GTGCGCGA | 0.00408
CACACAAA | 0.103
CAGTATCA | 0.0462
ATGCCACG | -0.15
GTATGGCA | -0.023
GTCAGCTA | -0.0756
CACTTGTA | 0.0741
ACCACGGA | -0.236
GCAGTGCA | 0.00906
TAACTGAA | 0.0253
CTGAGCTA | -0.155
TTAGAAAA | 0.0486
ACTTTTCG | 0.0705
ACGGCTGG | -0.224
CGCTGATA | -0.108
ACAGGCGG | -0.0762
AGGTACGG | -0.166
ATGACATG | 0.0548
CAGAGTAG | 0.101
GTCAAAAA | 0.055
CTTCGAGA | -0.164
CCTAGTCA | 0.0001
AAAGTGAC | -0.0256
ACGACAAG | 0.0627

Sequence | PBM E-score
GACAGTCC | -0.198
ACTGGCCT | -0.135
TAAATATA | 0.297
GCTTGGCA | -0.188
CATGTGTC | 0.0511
ACCATACC | -0.0173
AATATACC | 0.185
CCCAGAGA | -0.0962
ATCAGCAT | 0.107
ATGAACCA | 0.198
CCCTACGA | -0.0192
CGACCTCA | -0.0898
ACGAGGAG | 0.0509
AAGTGGGC | 0.11
AAAAGTTT | 0.0426
CCGGTTCC | -0.0896
ACTTATCG | 0.104
CGAGCCCG | -0.254
CCTACTAA | 0.073
TGCGAGAA | -0.0655
TATGCTGA | -0.0774
ACTGCAAA | -0.00094
CCCTAACC | 0.00532
CCTGGCAG | -0.0265
CCGTGGAA | -0.00863

Sequence | PBM E-score
CTGCCCAC | -0.168
GCATAAGC | 0.16
ACTCCTAC | -0.0361
AGACTCGG | -0.231
CAACATTA | 0.209
ACGTCGAC | 0.0881
ACCACTCT | -0.0304
ATACCAAG | 0.116
AATGTTAC | 0.111
CGGTCTTA | -0.196
AGTCGGTC | -0.125
GAACTTAC | 0.0611
GGTGGCGA | -0.0578
CACATACC | -0.121
CGGACAAA | 0.0955
GTCACGAA | 0.0553
AGCTTCTC | -0.056
CTGGACGA | -0.189
CGTGGGCC | -0.127
AGCAAAAT | 0.0797
AAAACGGC | 0.0585
CGGAACAA | 0.241
TTCTTCAA | 0.0985
AATCAGCC | -0.011
CTGTTGTC | 0.102

Sequence | PBM E-score
TAAGATAA | 0.0659
CTTTTACC | 0.197
CTCTGGCA | -0.0564
CGTCTTAA | -0.0261
GTTTATGA | 0.167
ATCTTGAA | 0.0306
ACAGGGTC | -0.15
AGGGTACA | 0.0205
ATACCTGG | -0.169
CGATGTGA | 0.0929
CGCTTTTC | -0.0501
GACAAGAC | -0.0835
TCCAAACA | -0.0104
AACGTTGT | 0.104
CGAAGACG | -0.174
CAGTGAGA | -0.0268
AGAAAGAT | 0.164
CATACTTC | -0.0826
CTTCCTTC | -0.204
TGCGGCAA | 0.00329
GTAACCAC | -0.0746
CGCAGGAG | -0.101
AATAGGGG | 0.115
GCCCACAC | -0.0756
AAGGTGTC | -0.101

Quoted from the results shown for reference:
Sequence | PBM E-score
CATGCGAC | 0.0586
ATGCTTAC | 0.00368
AACGGTAG | -0.0242
GCACTGGC | -0.0323
CACCAGAC | -0.0524
GAAAAGCA | 0.0951
CTTCGAAG | 0.0178
GATCGTGC | -0.00651
TATTCAAA | 0.138
AGTGTGGA | 0.0487
ATTCGACG | 0.166
ATACCCAC | -0.0482
ACATTCCC | 0.00295
GACGAAAC | 0.00983
ACTTGGAG | -0.0381
AGTCGACT | 0.277
ACAGATGT | -0.0809
GCGCGCGA | 0.121
GGTGCGCA | 0.0309
ACTATGGC | 0.0572
AGGTTTGC | -0.0512
CCTCTATC | -0.0735
ACGCGAGG | 0.0928
AAGCGGTA | 0.0894
AGGACCGA | -0.0553
CAGCGTGA | -0.0264
AGGATTTA | 0.153
ATGTTTAG | 0.141
TCTCCCAA | -0.0993
CTCATCAG | 0.145
GCTTCACC | -0.15
AAGATAAA | 0.286
AGTGTCAT | 0.153
ATATTGTG | 0.147
ATTAACAG | 0.0676
AGAGGCAC | -0.224
CAGTTCAC | -0.0312
GTGCGCGA | 0.00408
CACACAAA | 0.103
CAGTATCA | 0.0462
ATGCCACG | -0.15
GTATGGCA | -0.023
GTCAGCTA | -0.0756
CACTTGTA | 0.0741
ACCACGGA | -0.236
GCAGTGCA | 0.00906
TAACTGAA | 0.0253

Continuation.

Sequence | PBM E-score
ACGGTAGT | 0.0239
ATTAGGGA | 0.00493
AAACGCTG | -0.0785
CTATGCTC | -0.0894
CGAATACA | 0.0361
ATATCATG | 0.101
CCTTCTAA | -0.0389
ATGTGCAG | -0.188
CCTAGGGC | -0.24
CATGAATG | 0.0841
ATTATTAC | 0.269
CCAGCGGG | -0.215
AAAACACG | 0.22
ATATGTAG | 0.0736
GCTGGCTA | -0.196
GCAGTAAA | 0.0959
AGTTTTCC | 0.0722
AGCTTAAC | -0.0329
ATGCAGAA | 0.154
ACTCGCAT | 0.117
CTTGGGGA | 0.0229
CACATGCC | 0.0554

Source: the supplement of paper PMC3334620
